Measured values as given in patent US20180094045A1 (ASCLEPIUS SUZHOU TECHNOLOGY COMPANY GROUP, published 2018).
These are yes or no findings as the source states them, for the method shown. Some binding calls cover weakened binding; strength is not graded here.

Chains of the proteins cited; added tags and fusions are not shown. Residues count along the entry.
UniProt Q9Y6N7, residues 26-1651: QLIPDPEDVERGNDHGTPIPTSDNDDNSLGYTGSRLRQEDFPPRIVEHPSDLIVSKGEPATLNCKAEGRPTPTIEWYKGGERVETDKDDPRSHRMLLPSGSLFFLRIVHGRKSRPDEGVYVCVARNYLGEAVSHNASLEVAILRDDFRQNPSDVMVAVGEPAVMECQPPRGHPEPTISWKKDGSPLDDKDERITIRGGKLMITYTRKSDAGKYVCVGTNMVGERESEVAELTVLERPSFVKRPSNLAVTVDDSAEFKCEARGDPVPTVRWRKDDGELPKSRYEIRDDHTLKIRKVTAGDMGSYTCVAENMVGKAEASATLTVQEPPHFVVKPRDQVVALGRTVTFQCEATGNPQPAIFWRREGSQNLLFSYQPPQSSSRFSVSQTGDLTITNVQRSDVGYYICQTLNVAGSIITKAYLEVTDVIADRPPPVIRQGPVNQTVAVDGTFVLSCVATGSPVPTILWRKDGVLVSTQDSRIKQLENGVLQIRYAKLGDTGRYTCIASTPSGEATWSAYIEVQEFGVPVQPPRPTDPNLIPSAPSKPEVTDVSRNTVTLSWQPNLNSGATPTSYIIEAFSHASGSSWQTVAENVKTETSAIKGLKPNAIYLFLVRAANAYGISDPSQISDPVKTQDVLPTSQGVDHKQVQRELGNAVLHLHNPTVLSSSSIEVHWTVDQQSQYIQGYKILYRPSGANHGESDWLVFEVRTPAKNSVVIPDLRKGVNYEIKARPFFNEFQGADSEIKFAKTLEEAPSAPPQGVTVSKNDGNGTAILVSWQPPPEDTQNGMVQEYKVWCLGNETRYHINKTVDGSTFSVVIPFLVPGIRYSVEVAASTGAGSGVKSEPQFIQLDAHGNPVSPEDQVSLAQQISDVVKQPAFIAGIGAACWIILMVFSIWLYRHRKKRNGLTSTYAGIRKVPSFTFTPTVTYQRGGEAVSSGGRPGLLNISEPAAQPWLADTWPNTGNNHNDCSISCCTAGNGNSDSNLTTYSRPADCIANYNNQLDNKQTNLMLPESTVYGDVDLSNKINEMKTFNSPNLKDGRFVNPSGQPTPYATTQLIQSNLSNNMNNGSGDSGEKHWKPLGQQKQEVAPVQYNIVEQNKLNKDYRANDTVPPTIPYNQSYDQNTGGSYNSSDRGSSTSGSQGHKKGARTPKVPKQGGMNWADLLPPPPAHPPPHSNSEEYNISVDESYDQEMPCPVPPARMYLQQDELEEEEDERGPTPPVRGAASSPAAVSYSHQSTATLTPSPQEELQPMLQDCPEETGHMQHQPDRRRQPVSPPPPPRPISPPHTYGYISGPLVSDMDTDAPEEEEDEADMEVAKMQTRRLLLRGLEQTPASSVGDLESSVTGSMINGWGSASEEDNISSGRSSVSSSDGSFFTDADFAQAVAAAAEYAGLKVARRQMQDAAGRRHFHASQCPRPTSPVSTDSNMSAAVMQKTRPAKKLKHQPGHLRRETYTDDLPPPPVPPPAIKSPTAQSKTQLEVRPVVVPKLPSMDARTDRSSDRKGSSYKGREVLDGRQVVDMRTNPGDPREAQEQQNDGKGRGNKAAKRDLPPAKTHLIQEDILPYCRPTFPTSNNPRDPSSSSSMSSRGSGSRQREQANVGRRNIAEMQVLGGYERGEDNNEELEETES

Target: Robo1 (ORIGEN Company, number: TP327713) (UniProt Q9Y6N7)
Assay: SPR (BIAcore), Robo1 bound on CM5 chip

B1: Slit2N protein (ligand, UniProt O94813 31-1121, looked up)
chain: QCSCSGSTVDCHGLALRSVPRNIPRNTERLDLNGNNITRITKTDFAGLRHLRVLQLMENKISTIERGAFQDLKELERLRLNRNHLQLFPELLFLGTAKLYRLDLSENQIQAIPRKAFRGAVDIKNLQLDYNQISCIEDGAFRALRDLEVLTLNNNNITRLSVASFNHMPKLRTFRLHSNNLYCDCHLAWLSDWLRQRPRVGLYTQCMGPSHLRGHNVAEVQKREFVCSGHQSFMAPSCSVLHCPAACTCSNNIVDCRGKGLTEIPTNLPETITEIRLEQNTIKVIPPGAFSPYKKLRRIDLSNNQISELAPDAFQGLRSLNSLVLYGNKITELPKSLFEGLFSLQLLLLNANKINCLRVDAFQDLHNLNLLSLYDNKLQTIAKGTFSPLRAIQTMHLAQNPFICDCHLKWLADYLHTNPIETSGARCTSPRRLANKRIGQIKSKKFRCSAKEQYFIPGTEDYRSKLSGDCFADLACPEKCRCEGTTVDCSNQKLNKIPEHIPQYTAELRLNNNEFTVLEATGIFKKLPQLRKINFSNNKITDIEEGAFEGASGVNEILLTSNRLENVQHKMFKGLESLKTLMLRSNRITCVGNDSFIGLSSVRLLSLYDNQITTVAPGAFDTLHSLSTLNLLANPFNCNCYLAWLGEWLRKKRIVTGNPRCQKPYFLKEIPIQDVAIQDFTCDDGNDDNSCSPLSRCPTECTCLDTVVRCSNKGLKVLPKGIPRDVTELYLDGNQFTLVPKELSNYKHLTLIDLSNNRISTLSNQSFSNMTQLLTLILSYNRLRCIPPRTFDGLKSLRLLSLHGNDISVVPEGAFNDLSALSHLAIGANPLYCDCNMQWLSDWVKSEYKEPGIARCAGPGEMADKLLLTTPSKKFTCQGPVDVNILAKCNPCLSNPCKNDGTCNSDPVDFYRCTCPYGFKGQDCDVPIHACISNPCKHGGTCHLKEGEEDGFWCICADGFEGENCEVNVDDCEDNDCENNSTCVDGINNYTCLCPPEYTGELCEEKLDFCAQDLNPCQHDSKCILTPKGFKCDCTPGYVGEHCDIDFDDCQDNKCKNGAHCTDAVNGYTCICPEGYSGLFCEFSPPMVLPR
notes: domain: protein at N-terminal of slit2 with a molecular weight of about 120 KDa; Comparator in the SPR experiment
In the case of B1, the binding is reported as “binds”.
